The series has as its system mouse model of generalised seizure (tonic hind limb extensor convulsions). The series can be described thus: mini-MEST (maximal electroshock seizure threshold) test in the mouse. The note with it: 2.5 mg/kg i.p., 30 min post dose, N=6. How it is done:
The maximal electroshock seizure threshold (MEST) test is widely utilized preclinically to evaluate pro- or anti-convulsant properties of test compounds (Loscher et al., 1991).
In the MEST test the ability of a drug to alter the seizure threshold current required to induce hind limb tonic extensor convulsions is measured according to an “up and down” method of shock titration (Kimball et al., 1957). An increase in seizure threshold is indicative of anti-convulsant effect.
The ability of a test compound to alter the stimulus intensity, expressed as current (mA), required to induce the presence of tonic hind limb extensor convulsions, is assessed in the MEST.
Naïve mice were acclimatized to the procedure room in their home cages for up to 7 days, with food and water available ad libitum.
All animals were weighed at the beginning of the study and randomly assigned to treatment groups based on a mean distribution of body weight across groups.
The first animal within a treatment group was given a shock at the expected or estimated CC50 current. […]
Test compound effects were also calculated as percentage change in CC50 from the vehicle control group.
Significant difference between drug-treated animals and controls were assessed according to Litchfield and Wilcoxon (1949).
In general terms: In the maximal electroshock model the usual endpoint is tonic extension of the hind limbs.

Each structure is given as a SMILES string.

As for `CN1C(=O)CN=C(c2ccccc2)c2cc(Cl)ccc21` [Diazepam, diazepam, reference compound], the “CC50 +/- SEM (current required for 50% of the animals to show seizure behaviour)” value was found to be 97.8 ± 3.7 mA. For the setting “listed as diazepam”, the “CC50 +/- SEM (current required for 50% of the animals to show seizure behaviour)” value was found to be 97.8 mA.

Values taken from US20240360060A1, “6-HYDROXY-CANNABIDIOL-C4” (GW RESEARCH LIMITED, priority 2021, published 2024).
